Experiment [1] addresses T1, HIRA::Flag (Histone Regulator-A, 3xFLAG-tagged) (Drosophila melanogaster) (UniProt O17468).
T1 sequence: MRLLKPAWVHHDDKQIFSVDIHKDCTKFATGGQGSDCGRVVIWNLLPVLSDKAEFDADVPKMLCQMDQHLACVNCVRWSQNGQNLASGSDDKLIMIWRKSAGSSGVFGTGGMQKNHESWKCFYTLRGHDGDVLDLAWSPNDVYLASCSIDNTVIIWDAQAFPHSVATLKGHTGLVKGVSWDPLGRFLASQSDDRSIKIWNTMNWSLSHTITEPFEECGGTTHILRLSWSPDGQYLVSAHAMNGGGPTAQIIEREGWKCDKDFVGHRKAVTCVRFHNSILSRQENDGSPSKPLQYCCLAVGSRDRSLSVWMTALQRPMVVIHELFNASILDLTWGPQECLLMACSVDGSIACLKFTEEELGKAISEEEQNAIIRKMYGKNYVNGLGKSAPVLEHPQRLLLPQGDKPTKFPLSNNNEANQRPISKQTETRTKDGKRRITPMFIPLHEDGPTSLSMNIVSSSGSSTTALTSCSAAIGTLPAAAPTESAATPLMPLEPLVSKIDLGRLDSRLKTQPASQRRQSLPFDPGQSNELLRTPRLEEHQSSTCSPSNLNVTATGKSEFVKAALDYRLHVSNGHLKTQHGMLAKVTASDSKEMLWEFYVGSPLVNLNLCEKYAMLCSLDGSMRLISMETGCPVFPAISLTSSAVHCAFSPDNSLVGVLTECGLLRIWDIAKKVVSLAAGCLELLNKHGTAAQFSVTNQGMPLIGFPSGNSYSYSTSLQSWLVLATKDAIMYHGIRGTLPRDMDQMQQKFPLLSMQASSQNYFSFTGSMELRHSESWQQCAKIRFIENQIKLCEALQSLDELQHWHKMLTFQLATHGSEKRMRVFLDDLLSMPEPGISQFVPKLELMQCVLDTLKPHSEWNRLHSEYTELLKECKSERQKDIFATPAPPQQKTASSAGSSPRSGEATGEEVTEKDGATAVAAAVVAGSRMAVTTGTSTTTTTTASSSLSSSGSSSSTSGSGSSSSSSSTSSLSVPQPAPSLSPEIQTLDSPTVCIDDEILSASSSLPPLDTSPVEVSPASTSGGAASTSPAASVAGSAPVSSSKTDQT
Kind of experiment: co-IP; ovarian extracts of transgenic females; 100 µg extract with anti-V5 agarose beads or anti-FLAG M2 affinity gel overnight at 4 °C; washing buffer 20 mM Hepes pH 7.9, 100 mM KCl, 200 mM NaCl, 0.05% Igepal; Western blot. A general note: In western blotting, separated proteins are transferred to a membrane and probed.

Experiment [2] has as its target T2, HIRA[ΔB]::Flag (HIRA with a deletion in the B domain, 3xFLAG-tagged) (Drosophila melanogaster) (UniProt O17468).
T2 sequence: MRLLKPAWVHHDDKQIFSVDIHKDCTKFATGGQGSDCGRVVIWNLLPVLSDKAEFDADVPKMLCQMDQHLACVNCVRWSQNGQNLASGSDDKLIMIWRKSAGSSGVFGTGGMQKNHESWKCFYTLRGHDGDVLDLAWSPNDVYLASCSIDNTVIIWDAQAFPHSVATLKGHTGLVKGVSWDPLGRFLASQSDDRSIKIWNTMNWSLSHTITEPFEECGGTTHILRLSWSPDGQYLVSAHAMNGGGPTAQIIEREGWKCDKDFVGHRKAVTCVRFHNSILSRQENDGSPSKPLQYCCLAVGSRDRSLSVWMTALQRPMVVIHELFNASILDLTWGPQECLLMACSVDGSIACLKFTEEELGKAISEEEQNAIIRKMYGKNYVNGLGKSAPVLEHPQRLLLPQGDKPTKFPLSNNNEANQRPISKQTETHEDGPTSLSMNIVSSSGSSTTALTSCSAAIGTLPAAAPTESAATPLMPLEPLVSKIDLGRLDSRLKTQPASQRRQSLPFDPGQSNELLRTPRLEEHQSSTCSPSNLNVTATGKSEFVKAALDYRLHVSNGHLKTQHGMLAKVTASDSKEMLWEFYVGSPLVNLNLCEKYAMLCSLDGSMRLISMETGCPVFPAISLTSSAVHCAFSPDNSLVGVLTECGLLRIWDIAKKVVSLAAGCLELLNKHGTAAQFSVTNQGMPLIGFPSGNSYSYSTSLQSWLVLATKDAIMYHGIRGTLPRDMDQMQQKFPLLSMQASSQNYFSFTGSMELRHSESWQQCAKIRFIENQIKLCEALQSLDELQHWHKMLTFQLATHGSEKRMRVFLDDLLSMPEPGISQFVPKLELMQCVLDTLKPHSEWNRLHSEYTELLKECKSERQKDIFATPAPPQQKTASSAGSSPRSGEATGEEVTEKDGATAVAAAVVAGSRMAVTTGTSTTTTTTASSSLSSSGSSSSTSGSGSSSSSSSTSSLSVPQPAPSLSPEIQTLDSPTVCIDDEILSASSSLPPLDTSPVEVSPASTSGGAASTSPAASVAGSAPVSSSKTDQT
Described as above.

No constants are given. Whether binding was seen depends on the method and setting. Binding seen in cells or lysates may run through a third protein. Some binding calls cover weakened binding; strength is not graded here. Tags and fused reporters may be left off the sequences shown.

Here are results for 1 molecule from PMC5946387.

B1: ASF1::V5 (Anti-Silencing Factor 1, V5-tagged) (protein, UniProt Q9V464 1-218)
chain: MAKVHITNVVVLDNPSSFFNPFQFELTFECIEELKEDLEWKMIYVGSAESEEHDQVLDTIYVGPVPEGRHIFVFQADPPDVSKIPEPDAVGVTIVLLTCSYRGQEFVRVGYYVNNDYADPEMRENPPTKPLFEKLTRNILASKPRVTRFKINWDYGHINGNGNGVENGHQDEMATDGPSTSEAASAVIHPEDDNSLAMPMENGIKALNENSNSLAMEC
As for B1, the binding entry in experiment [1] and in experiment [2] was “binds” throughout.
